Here are results for 39 compounds from the supplement of paper PMC8497498.

The other results are listed elsewhere or left out. The data scatter; read single values as rough.

In one assay the test system is Plasmodium vivax liver stage (primary human hepatocyte culture). The experiment in a line: hypnozoite quantity inhibition (% inhibition); higher = more active against hypnozoites. Conditions: 10 µM; assay mode: Radical Cure (treated from day 5 post-infection for 3 days), fixed day 8 post-infection.
As for `O=C(Nc1ccc(-c2nc3cc(NC(=O)c4ccc(Cl)cc4)ccc3[nH]2)cc1)c1ccc(Cl)cc1`, the hypnozoite quantity inhibition is 42.7.
Same read-out and setting: for `COc1cccc(NC(=O)Cn2c(C)c(C#N)c3ccccc32)c1` the value was 40.5; for `CCCc1c(C)nc2ccc(Br)cc2c1O`, 1.9.
In turn, `O=C(Nc1ccc(F)c(-c2nc3cc(-c4ccccc4)cnc3[nH]2)c1)N1CCCC1` came in with a hypnozoite quantity inhibition of 4.
Compound `O=C(CN1CCOCC1)Nc1ccc2ncnc(Nc3ccc(OCc4cccc(F)c4)c(Cl)c3)c2c1` yielded a hypnozoite quantity inhibition of -51.
`Cc1ccc2cc(C3NC(=O)c4ccccc4N3)c(Cl)nc2c1` (stereo not drawn): the hypnozoite quantity inhibition is -20.
Same read-out and setting: under `CCc1cc(=O)n(C)c(SC(C)C(=O)Nc2ccc(F)cc2)n1` (stereo not drawn) stands 57; under `CCCCOC(=O)Nc1cc2nc(C3CCCCC3)[nH]c2cc1N1CCCC1`, -85.
The compound `CC(C)(C)CN1C(=O)C(c2ccccc2)(c2ccccc2)N=C1N` registered a hypnozoite quantity inhibition of -25.
`CNC(=O)C1Cc2c([nH]c3cc(Cl)ccc23)C2(CCN(CCc3ccccc3)CC2)N1` (stereo not drawn) yielded a hypnozoite quantity inhibition of -31.
On the same count and under the same terms, under `CCCCOC(=O)c1ccc(Nc2cc(C)nc3ccc(OC)cc23)cc1` stands -14.4.
`COc1cccc(-n2nnnc2S(=O)(=O)Cc2ccccc2)c1` gave a hypnozoite quantity inhibition of -25.
For `COc1ccc(-c2cnc3cnc(-c4cccc(OC(C)C)c4)cn23)cc1`, the hypnozoite quantity inhibition is 24.
On the same count and under the same terms, for `Cc1nc(-c2ccccn2)nc(NCCc2ccc(S(C)(=O)=O)cc2)c1Cl` the value was 26.
Still for that read-out and setting: for `Cc1ccc(Nc2nc(NCCO)c3ccccc3n2)cc1C` the value was 18.3; for `CCc1c(C)c(=N)c2ccccc2n1C`, 49.6.
The same measure, in the same setting: under `COc1nc(Nc2ccc(C(C)C)cc2)nc(OC)n1` stands 48.2; under `C[C@H](C(N)=O)N1CCCC[C@@H]1c1ccc(OCc2cccc(F)c2)cc1`, 0.
Turning to `CC1CC(C)CN(C(=O)c2ccc(Cl)cc2Cl)C1` (stereo not drawn), the hypnozoite quantity inhibition was 22.1.
On the same count and under the same terms, under `Clc1ccc2c(N3CCCC3)ccnc2c1` stands 53.7; under `CCc1ccc(Nc2cc(C)nc3nc(C)nn23)cc1`, 37.4.
With `COc1cc(-c2cc(-c3ccc(S(C)(=O)=O)cc3)cnc2N)ccc1O`, the hypnozoite quantity inhibition came to 1.
Compound `CC[C@H](CO)NCCN[C@H](CC)CO` gave a hypnozoite quantity inhibition of 3.
Compound `O=C(NC1CCN(Cc2ccccc2)CC1)c1cc(C(=O)NC2CCN(Cc3ccccc3)CC2)cc(C(=O)NC2CCN(Cc3ccccc3)CC2)c1` registered a hypnozoite quantity inhibition of 49.6.
Still for that read-out and setting: under `CCN(CC)CCCNc1ccnc2cc(Cl)ccc12` stands 4; under `CCN1CCN(c2cc(C)c3cc(NC(=O)c4ccc(OC)c(OC)c4)ccc3n2)CC1`, -38.9.
Still for that read-out and setting: under `O=C1C2=C(Nc3ccccc3SC2c2ccccc2)c2ccccc21` (stereo not drawn) stands 42.8.
The same measure, in the same setting: for `CC(=O)N(CCN(C(=O)c1ccc(F)cc1)c1ccccc1)c1ccccc1` the value was -15; for `COc1ccc2nc(C)cc(Nc3cccc(O)c3)c2c1`, 12.8; for `NCCN(C(=O)c1ccc(Cl)cc1Cl)c1ccc(OCc2ccc(Cl)cc2)cc1`, -25.
For the compound `COc1cc(OC)cc(C(=O)NCC2Cc3cc(Cl)cc(-c4ccncc4)c3O2)c1` (stereo not drawn), the hypnozoite quantity inhibition was -7.
`O=C1c2ccc3c4c(ccc(c24)C(=O)N1CCCCO)C(=O)N(CCCCO)C3=O` showed a hypnozoite quantity inhibition of 74.8.
Still for that read-out and setting: for `O=C(NC1CC1)c1ccc(N2CCOc3ccc(Cl)cc32)s1` the value was -67.
On the same count and under the same terms, under `CN1CCC(c2cc(-c3ccncc3)c(-c3ccc(F)cc3)[nH]2)CC1` stands -4.
The same measure, in the same setting: for `COc1cc(OC)cc(N2C(=O)N(Cc3ccc(C(C)(C)C)cc3)c3ccccc3S2(=O)=O)c1` the value was -11.7; for `O=S(=O)(c1ccc(Cl)cc1)N1CCN(C(=S)NCc2ccco2)CC1`, -80; for `Cc1ccc(S(=O)(=O)N2CCN(C(=O)c3cc(-c4ccccc4)[nH]n3)CC2)cc1`, -46.
As to `CCOC(=O)c1noc(N)c1-c1ccccc1`, the hypnozoite quantity inhibition came to 2.
Same read-out and setting: for `Cn1c(=O)c2c(S(C)(=O)=O)snc2n(C)c1=O` the value was -106.

The test system is the same in another assay. The experiment in a line: schizont net growth area inhibition (% inhibition); higher = more active against liver schizonts. The settings on record: 10 µM; assay mode: Prophylactic (treated before or shortly after infection), fixed day 6 post-infection.
Take `O=C(Nc1ccc(-c2nc3cc(NC(=O)c4ccc(Cl)cc4)ccc3[nH]2)cc1)c1ccc(Cl)cc1`: the “schizont net growth area inhibition” value was -54.4.
On the same count and under the same terms, for `COc1cccc(NC(=O)Cn2c(C)c(C#N)c3ccccc32)c1` the value was 66; for `CCCc1c(C)nc2ccc(Br)cc2c1O`, 67.9; for `O=C(Nc1ccc(F)c(-c2nc3cc(-c4ccccc4)cnc3[nH]2)c1)N1CCCC1`, 37.2.
The same measure, in the same setting: under `O=C(CN1CCOCC1)Nc1ccc2ncnc(Nc3ccc(OCc4cccc(F)c4)c(Cl)c3)c2c1` stands 24.5.
The same measure, in the same setting: for `Cc1ccc2cc(C3NC(=O)c4ccccc4N3)c(Cl)nc2c1` (stereo not drawn) the value was 20.7; for `CCc1cc(=O)n(C)c(SC(C)C(=O)Nc2ccc(F)cc2)n1` (stereo not drawn), -1.3; for `CCCCOC(=O)Nc1cc2nc(C3CCCCC3)[nH]c2cc1N1CCCC1`, 14.8.
In the case of `CC(C)(C)CN1C(=O)C(c2ccccc2)(c2ccccc2)N=C1N`, the “schizont net growth area inhibition” value came out at 8.9.
The same measure, in the same setting: under `CNC(=O)C1Cc2c([nH]c3cc(Cl)ccc23)C2(CCN(CCc3ccccc3)CC2)N1` (stereo not drawn) stands 62.1; under `CCCCOC(=O)c1ccc(Nc2cc(C)nc3ccc(OC)cc23)cc1`, -3.4.
As for `COc1cccc(-n2nnnc2S(=O)(=O)Cc2ccccc2)c1`, the “schizont net growth area inhibition” value was 42.3.
As for `COc1ccc(-c2cnc3cnc(-c4cccc(OC(C)C)c4)cn23)cc1`, the “schizont net growth area inhibition” value was -45.8.
Same read-out and setting: for `Cc1nc(-c2ccccn2)nc(NCCc2ccc(S(C)(=O)=O)cc2)c1Cl` the value was -44.3.
Consider `Cc1ccc(Nc2nc(NCCO)c3ccccc3n2)cc1C`, for which the “schizont net growth area inhibition” value is -371.
The same measure, in the same setting: for `CCc1c(C)c(=N)c2ccccc2n1C` the value was -124; for `COc1nc(Nc2ccc(C(C)C)cc2)nc(OC)n1`, 29.8; for `C[C@H](C(N)=O)N1CCCC[C@@H]1c1ccc(OCc2cccc(F)c2)cc1`, -33.6.
Turning to `CC1CC(C)CN(C(=O)c2ccc(Cl)cc2Cl)C1` (stereo not drawn), the “schizont net growth area inhibition” value is -3.2.
With `Clc1ccc2c(N3CCCC3)ccnc2c1`, the “schizont net growth area inhibition” value was found to be 12.9.
On the same count and under the same terms, for `CCc1ccc(Nc2cc(C)nc3nc(C)nn23)cc1` the value was 48.6; for `COc1cc(-c2cc(-c3ccc(S(C)(=O)=O)cc3)cnc2N)ccc1O`, 90.7.
Turning to `CC[C@H](CO)NCCN[C@H](CC)CO`, the “schizont net growth area inhibition” value stood at 32.3.
`O=C(NC1CCN(Cc2ccccc2)CC1)c1cc(C(=O)NC2CCN(Cc3ccccc3)CC2)cc(C(=O)NC2CCN(Cc3ccccc3)CC2)c1`: the “schizont net growth area inhibition” value stood at 61.
Regarding `CCN(CC)CCCNc1ccnc2cc(Cl)ccc12`, the “schizont net growth area inhibition” value was found to be 53.5.
Same read-out and setting: under `CCN1CCN(c2cc(C)c3cc(NC(=O)c4ccc(OC)c(OC)c4)ccc3n2)CC1` stands 96.4; under `O=C1C2=C(Nc3ccccc3SC2c2ccccc2)c2ccccc21` (stereo not drawn), 57.8.
Take `CC(=O)N(CCN(C(=O)c1ccc(F)cc1)c1ccccc1)c1ccccc1`: the “schizont net growth area inhibition” value is -10.3.
Regarding `COc1ccc2nc(C)cc(Nc3cccc(O)c3)c2c1`, the “schizont net growth area inhibition” value is -28.4.
As for `NCCN(C(=O)c1ccc(Cl)cc1Cl)c1ccc(OCc2ccc(Cl)cc2)cc1`, the “schizont net growth area inhibition” value was 32.
As for `COc1cc(OC)cc(C(=O)NCC2Cc3cc(Cl)cc(-c4ccncc4)c3O2)c1` (stereo not drawn), the “schizont net growth area inhibition” value was found to be 73.1.
With `O=C1c2ccc3c4c(ccc(c24)C(=O)N1CCCCO)C(=O)N(CCCCO)C3=O`, the “schizont net growth area inhibition” value was determined as 75.7.
For the compound `O=C(NC1CC1)c1ccc(N2CCOc3ccc(Cl)cc32)s1`, the “schizont net growth area inhibition” value worked out at 22.2.
The same measure, in the same setting: under `CN1CCC(c2cc(-c3ccncc3)c(-c3ccc(F)cc3)[nH]2)CC1` stands 18.6; under `COc1cc(OC)cc(N2C(=O)N(Cc3ccc(C(C)(C)C)cc3)c3ccccc3S2(=O)=O)c1`, 44.6; under `O=S(=O)(c1ccc(Cl)cc1)N1CCN(C(=S)NCc2ccco2)CC1`, 64.4.
Same read-out and setting: for `Cc1ccc(S(=O)(=O)N2CCN(C(=O)c3cc(-c4ccccc4)[nH]n3)CC2)cc1` the value was 31.5.
Take `CCOC(=O)c1noc(N)c1-c1ccccc1`: the “schizont net growth area inhibition” value is -70.8.
For the compound `Cn1c(=O)c2c(S(C)(=O)=O)snc2n(C)c1=O`, the “schizont net growth area inhibition” value is -38.6.
